# The supplement of paper PMC11348887
# Structures can show the parent of a compound that is named as a salt. The list shows a part of the results. Small differences around the control level are noise.
# What was measured:
# Conditions in all cases: 5 µM; treatment: days 7-14 after plating, readout day 21
# [1] = test system: hPSC-derived cortical neurons (WA09); test: nucleus area z-score vs screen plate; higher = larger nuclei (more mature)
# [2] = test system: hPSC-derived cortical neurons (WA09); test: total neurite length per nucleus (MAP2) z-score; higher = more neurite growth
# [3] = test system: hPSC-derived cortical neurons (WA09); test: nucleus roundness z-score vs screen plate; higher = rounder nuclei (more mature)
# [4] = test system: hPSC-derived cortical neurons (WA09); test: KCl-induced FOS+/EGR-1+ double-positive nuclei fraction z-score (KCl minus unstimulated); higher = stronger activity-induced IEG response
Structure (SMILES),nucleus area z-score [1],total neurite length per nucleus (z-score) [2],nucleus roundness z-score [3],KCl-induced FOS+/EGR-1+ double-positive nuclei fraction z-score [4]
Cc1cncc(CN2CCC(=C3c4ccc(Cl)cc4CCc4cccnc43)CC2)c1 [Rupatadine Fumarate],0.611,-0.355,0.276,-0.0555
CC(C)(O)CNc1nc(Nc2ccnc(C(F)(F)F)c2)nc(-c2cccc(C(F)(F)F)n2)n1 [Enasidenib (AG-221)],0.233,0.105,-0.665,2.27
Nc1ccc(C(=O)Nc2cccc(-c3nc(N4CCOCC4)c4oc5ncccc5c4n3)c2)cn1,-3.02,-0.937,-2.92,-0.119
C=C1[C@H](CO)[C@@H](O)C[C@@H]1n1cnc2c(=O)[nH]c(N)nc21 [Entecavir Hydrate],1.95,1.59,1.47,1.7
NC(=O)Cc1cccc(C(=O)c2ccccc2)c1N [Nepafenac],2.32,0.452,-0.752,2.34
NS(=O)(=O)c1cc(Cl)c(Cl)c(S(N)(=O)=O)c1 [Dichlorphenamide],0.512,0.828,0.473,2.31
CCn1c(-c2nonc2N)nc2c(C#CC(C)(C)O)ncc(OC[C@H]3CCCNC3)c21,-2.95,-1.48,-0.95,-0.708
CCS(=O)(=O)CCn1c([N+](=O)[O-])cnc1C [Tinidazole],0.485,0.795,0.322,0.457
Cn1c(=O)cc(N2CCC[C@@H](N)C2)n(Cc2ccccc2C#N)c1=O [Alogliptin],-0.774,1.02,2.38,0.797
O=C(O)CSc1nnc(Br)n1-c1ccc(C2CC2)c2ccccc12 [Lesinurad],0.404,-0.776,-0.495,-0.597
COCC(=O)NC/C=C/c1ccc2ncnc(Nc3ccc(Oc4ccc(C)nc4)c(C)c3)c2c1,1.44,-0.637,-0.973,0.517
Cc1ncc(Cl)cc1NCc1ccc(C(=O)N[C@@H](CC2CCCC2)C(=O)NC2CC2)s1,0.877,0.0179,0.0328,-0.236
CN1CCN(c2ccc(Nc3cc(-c4cccc(-n5ccc6cc(C7CC7)cc(F)c6c5=O)c4CO)cn(C)c3=O)nc2)CC1,-2.26,-0.435,-1.15,-0.204
CCN(CC)CCN(Cc1ccc(-c2ccc(C(F)(F)F)cc2)cc1)C(=O)Cn1c(SCc2ccc(F)cc2)nc(=O)c2c1CCC2,-13.2,-3.54,-1.52,-0.418
C=CCNC(N)=S [Allylthiourea],-0.466,0.301,0.662,0.813
COC(=O)[C@@H]1[C@H]2C[C@H]3c4[nH]c5ccccc5c4CCN3C[C@@H]2CC[C@@H]1O [Yohimbine HCl],-0.49,0.4,0.338,0.0936
Cc1ccccc1C(OCCN(C)C)c1ccccc1 (centres undefined) [Orphenadrine Citrate],-0.243,-0.63,-0.371,-0.715
COc1ccc(-c2nc(N3CCOCC3)c3sc(CN(C)c4ncc(C(=O)NO)cn4)cc3n2)cn1,-11.4,-4.8,-3.82,-0.542
CC(=O)Oc1ccccc1C(=O)Nc1ncc([N+](=O)[O-])s1 [Nitazoxanide],-0.581,0.705,1.17,1.01
CC1(C)O[C@@H]2[C@@H](CO[C@@]3(COS(N)(=O)=O)OC(C)(C)O[C@@H]23)O1 [Topiramate],-0.0331,0.48,-1.31,-1.04
C=CCc1cccc(/C=N/NC(=O)CN2CCN(Cc3ccccc3)CC2)c1O,-0.91,-1.47,-2.92,0.385

# Given with bars between the fields: entries from further up
Structure (SMILES) | nucleus area z-score [1] | total neurite length per nucleus (z-score) [2] | nucleus roundness z-score [3] | KCl-induced FOS+/EGR-1+ double-positive nuclei fraction z-score [4]
Cn1c(=O)cc(N2CCC[C@@H](N)C2)n(Cc2ccccc2C#N)c1=O [Alogliptin] | -0.774 | 1.02 | 2.38 | 0.797
O=C(O)CSc1nnc(Br)n1-c1ccc(C2CC2)c2ccccc12 [Lesinurad] | 0.404 | -0.776 | -0.495 | -0.597

# Further structures follow.

Structure (SMILES),nucleus area z-score [1],total neurite length per nucleus (z-score) [2],nucleus roundness z-score [3],KCl-induced FOS+/EGR-1+ double-positive nuclei fraction z-score [4]
CC(=O)Nc1nnc(S(N)(=O)=O)s1 [Acetazolamide],0.771,3.63,-0.035,0.28
Cc1c(-c2cnccn2)ssc1=S [Oltipraz],0.481,0.569,0.647,0.252
COc1ccc(CC(C)NCC(O)c2ccc(O)c(NC=O)c2)cc1 (centres undefined) [Formoterol Hemifumarate],-0.938,-1.61,-3.28,-0.389
CC(/C=C1\SC(=S)N(CC(=O)O)C1=O)=C\c1ccccc1 [Epalrestat],-0.121,-0.924,-0.907,-0.396
Cc1cc(Nc2cc(N3CCN(C)CC3)nc(/C=C/c3ccccc3)n2)n[nH]1 [ENMD-2076 L-(+)-Tartaric acid],2.11,0.737,-1.77,-0.642
Cc1cc(F)c(C(=O)Nc2cccc(-c3nncn3C(C)C)n2)cc1-n1cnc(C2CC2)c1 [Selonsertib (GS-4997)],0.0333,-0.174,0.202,-0.0753
O=S(=O)(NCCSSCCNS(=O)(=O)c1cc(Cl)ccc1Cl)c1cc(Cl)ccc1Cl,0.31,-0.72,-0.98,-0.101
CN(C)c1ccc2nc3ccc(=[N+](C)C)cc-3sc2c1 [Methylene Blue],-3.21,3.16,-1.45,1.03
OC1(c2ccc(Cl)c(C(F)(F)F)c2)CCN(CCCC(c2ccc(F)cc2)c2ccc(F)cc2)CC1 [Penfluridol],-14.8,-4.78,-8.13,-0.313
COc1cc2nc(N3CCN(C(=O)c4ccco4)CC3)nc(N)c2cc1OC [Prazosin HCl],1.39,0.439,0.465,0.455
CC(C)(CCCCCC(O)CCCCCC(C)(C)C(=O)O)C(=O)O,0.107,1.12,0.931,0.568
COc1ccccc1-c1cc(Nc2cccc(CS(N)(=O)=O)c2)ncn1,-0.382,-0.21,-0.184,0.379
COc1c(C)c2c(c(O)c1C/C=C(\C)CCC(=O)O)C(=O)OC2 [Mycophenolic acid],-1.09,0.4,0.338,0.452
CC(=O)N[C@H]1[C@H]([C@H](O)[C@H](O)CO)OC(C(=O)O)=C[C@@H]1NC(=N)N [Zanamivir],-0.148,-0.0128,-0.0733,0.424
CCC[C@H](N[C@H]1CCc2cc(F)cc(F)c2C1)C(=O)Nc1cn(C(C)(C)CNCC(C)(C)C)cn1,-0.527,-1.52,-0.519,0.702
CCOC(=O)C1=C(COCCN)NC(C)=C(C(=O)OC)C1c1ccccc1Cl (centres undefined) [Amlodipine Besylate],-2.31,-2,-1.62,-1.41
OCc1ccc(O[C@@H]2O[C@H](CO)[C@@H](O)[C@H](O)[C@H]2O)cc1 [Gastrodin],-0.0379,-0.651,-0.738,-0.453
CCCCC(CC)COC(=O)CC(C(=O)OCC(CC)CCCC)S(=O)(=O)O (centres undefined) [Docusate Sodium],0.51,0.479,-0.358,1.1
Nc1nc(=O)c2nc(CNc3ccc(C(=O)N[C@@H](CCC(=O)O)C(=O)O)cc3)cnc2[nH]1 [Folic acid],-0.124,0.334,0.435,0.346
CCOC(=O)Nc1ccc(NCc2ccc(F)cc2)nc1N [Flupirtine maleate],-0.0717,0.374,-0.0529,-0.191
